Measurements: patent US20090326259A1, “NF-Kappabeta Activation Inhibitor” (Tokyo University of Marine Science and Technology, priority 2006, published 2009)
At least one compound was matched to its structure with a doubt left.

Key:
IL-1β mRNA = IL-1β mRNA expression under LPS stimulation in RAW264.7, semi-quantitative RT-PCR; format: cell-based, murine; details: RAW264.7, LPS stimulation, 1 μM and 10 μM; FIG. 4
iNOS mRNA = iNOS mRNA expression under LPS stimulation in RAW264.7, semi-quantitative RT-PCR; format: cell-based, murine; details: RAW264.7, LPS stimulation, 1 μM and 10 μM; FIG. 3
NF-κB = experiment: LPS-stimulated NF-κB activation in RAW264.7 murine macrophage (gel shift with biotin-labelled NF-κB consensus sequence); format: cell-based; details: RAW264.7, 1 μM compound 22 h, then 1 μg/ml LPS 2 h; FIG. 2
Experimental: [Measurement of LPS-stimulated NF-κB activation in RAW264.7 murine macrophage strain] The murine macrophage RAW264.7 is preserved in DMEM containing 10% fetal bovine serum. After treatment in DMEM with 1 μM cycloartenyl ferulate (CAF) for 22 h, it is further stimulated for 2 h in 1 μg/ml lipopolysaccharide (LPS).
The nucleoprotein of RAW264.7 cell is extracted with Transfactor Extraction kit (BD Biosciences, USA), and then is bound with the following NF-κB consensus sequence of biotin-labeling reaction for 60 min in reaction solution consisting 100 mM HEPES (pH 7.6), 5 mM EDTA, 50 mM ammonium sulfate, 5 mM DTT, 150 mM KCl, 1% (v/v) Tween20 and 0.0001% poly (dI-dC) (Amersham Biosciences, USA).
Except these experimental groups, control group reacting with 90-fold unlabeled consensus sequence, along with supershift group using anti-p50 polyclonal antibody (Abcam, USA) and anti-p65 polyclonal antibody (Santa Cruz Biotechnology, INC., USA) are established to make comparison. […]
The peroxidase activity is detected with Immobilon Western Chemiluminescent HRP substrate (Millipore, USA) and the luminous intensity is quantified by Image J (National Institutes of Health, USA) as shown in FIG. 2. […]

COc1cc(/C=C/C(=O)O[C@H]2CC[C@]34C[C@]35CC[C@]3(C)[C@@H]([C@H](C)CCC=C(C)C)CC[C@@]3(C)[C@@H]5CC[C@H]4C2(C)C)ccc1O [cycloartenyl ferulate]
expression of IL-1β mRNA (IL-1β mRNA): markedly suppress | expression of iNOS mRNA (iNOS mRNA): markedly suppress | NF-κB activation (NF-κB): markedly inhibits
